{
  "source": "paper PMC6494879",
  "about": "“Drug resistance emergence in macaques administered cabotegravir long-acting for pre-exposure prophylaxis during acute SHIV infection” (Nature Communications, 2019)",
  "system": "RT-SHIV",
  "experiment": "Plasma SHIV RNA (RT-PCR) in RT-SHIV-infected macaques treated with CAB LA",
  "note": "This continues a long series; more values of the same kind are listed elsewhere.",
  "data": [
    {"smiles": "C[C@H]1CO[C@@H]2Cn3cc(C(=O)NCc4ccc(F)cc4F)c(=O)c(O)c3C(=O)N12", "note": "[CAB, cabotegravir]", "values": [
      {"measurement": "SHIV RNA copies/ml", "setting": "macaque 33996, day 204", "result": 564, "unit": "copies/ml"},
      {"measurement": "SHIV RNA copies/ml", "setting": "macaque 35451, day 0", "result": 49, "unit": "copies/ml"},
      {"measurement": "SHIV RNA copies/ml", "setting": "macaque 35451, day 2", "result": 19312, "unit": "copies/ml"},
      {"measurement": "SHIV RNA copies/ml", "setting": "macaque 35451, day 4", "result": 183825, "unit": "copies/ml"},
      {"measurement": "SHIV RNA copies/ml", "setting": "macaque 35451, day 7", "result": 932430, "unit": "copies/ml"},
      {"measurement": "SHIV RNA copies/ml", "setting": "macaque 35451, day 9", "result": 6901147, "unit": "copies/ml"},
      {"measurement": "SHIV RNA copies/ml", "setting": "macaque 35451, day 11", "result": 5098254, "unit": "copies/ml"},
      {"measurement": "SHIV RNA copies/ml", "setting": "macaque 35451, day 71", "result": 49, "unit": "copies/ml"},
      {"measurement": "SHIV RNA copies/ml", "setting": "macaque 35451, day 74", "result": 49, "unit": "copies/ml"},
      {"measurement": "SHIV RNA copies/ml", "setting": "macaque 35451, day 78", "result": 104, "unit": "copies/ml"},
      {"measurement": "SHIV RNA copies/ml", "setting": "macaque 35451, day 81", "result": 42, "unit": "copies/ml"},
      {"measurement": "SHIV RNA copies/ml", "setting": "macaque 35451, day 85", "result": 49, "unit": "copies/ml"},
      {"measurement": "SHIV RNA copies/ml", "setting": "macaque 35451, day 88", "result": 49, "unit": "copies/ml"},
      {"measurement": "SHIV RNA copies/ml", "setting": "macaque 35451, day 92", "result": 49, "unit": "copies/ml"},
      {"measurement": "SHIV RNA copies/ml", "setting": "macaque 35451, day 95", "result": 49, "unit": "copies/ml"},
      {"measurement": "SHIV RNA copies/ml", "setting": "macaque 35451, day 102", "result": 44, "unit": "copies/ml"},
      {"measurement": "SHIV RNA copies/ml", "setting": "macaque 35451, day 106", "result": 49, "unit": "copies/ml"},
      {"measurement": "SHIV RNA copies/ml", "setting": "macaque 35451, day 115", "result": 49, "unit": "copies/ml"},
      {"measurement": "SHIV RNA copies/ml", "setting": "macaque 35451, day 120", "result": 538, "unit": "copies/ml"},
      {"measurement": "SHIV RNA copies/ml", "setting": "macaque 35451, day 134", "result": 1833, "unit": "copies/ml"},
      {"measurement": "SHIV RNA copies/ml", "setting": "macaque 35451, day 143", "result": 49, "unit": "copies/ml"},
      {"measurement": "SHIV RNA copies/ml", "setting": "macaque 35451, day 148", "result": 49, "unit": "copies/ml"},
      {"measurement": "SHIV RNA copies/ml", "setting": "macaque 35451, day 155", "result": 49, "unit": "copies/ml"},
      {"measurement": "SHIV RNA copies/ml", "setting": "macaque 35451, day 162", "result": 158, "unit": "copies/ml"},
      {"measurement": "SHIV RNA copies/ml", "setting": "macaque 35451, day 170", "result": 214, "unit": "copies/ml"},
      {"measurement": "SHIV RNA copies/ml", "setting": "macaque 35451, day 176", "result": 49, "unit": "copies/ml"},
      {"measurement": "SHIV RNA copies/ml", "setting": "macaque 35451, day 183", "result": 142, "unit": "copies/ml"},
      {"measurement": "SHIV RNA copies/ml", "setting": "macaque 35451, day 190", "result": 209, "unit": "copies/ml"},
      {"measurement": "SHIV RNA copies/ml", "setting": "macaque 35451, day 197", "result": 49, "unit": "copies/ml"},
      {"measurement": "SHIV RNA copies/ml", "setting": "macaque 35451, day 204", "result": 49, "unit": "copies/ml"},
      {"measurement": "SHIV RNA copies/ml", "setting": "macaque CH54, day 0", "result": 49, "unit": "copies/ml"},
      {"measurement": "SHIV RNA copies/ml", "setting": "macaque CH54, day 2", "result": 45495, "unit": "copies/ml"},
      {"measurement": "SHIV RNA copies/ml", "setting": "macaque CH54, day 4", "result": 209981, "unit": "copies/ml"},
      {"measurement": "SHIV RNA copies/ml", "setting": "macaque CH54, day 7", "result": 417410, "unit": "copies/ml"},
      {"measurement": "SHIV RNA copies/ml", "setting": "macaque CH54, day 9", "result": 6988208, "unit": "copies/ml"},
      {"measurement": "SHIV RNA copies/ml", "setting": "macaque CH54, day 11", "result": 4265928, "unit": "copies/ml"},
      {"measurement": "SHIV RNA copies/ml", "setting": "macaque CH54, day 71", "result": 1282, "unit": "copies/ml"},
      {"measurement": "SHIV RNA copies/ml", "setting": "macaque CH54, day 74", "result": 473, "unit": "copies/ml"},
      {"measurement": "SHIV RNA copies/ml", "setting": "macaque CH54, day 78", "result": 502, "unit": "copies/ml"},
      {"measurement": "SHIV RNA copies/ml", "setting": "macaque CH54, day 81", "result": 696, "unit": "copies/ml"},
      {"measurement": "SHIV RNA copies/ml", "setting": "macaque CH54, day 85", "result": 596, "unit": "copies/ml"},
      {"measurement": "SHIV RNA copies/ml", "setting": "macaque CH54, day 88", "result": 1057, "unit": "copies/ml"},
      {"measurement": "SHIV RNA copies/ml", "setting": "macaque CH54, day 92", "result": 4226, "unit": "copies/ml"},
      {"measurement": "SHIV RNA copies/ml", "setting": "macaque CH54, day 95", "result": 3496, "unit": "copies/ml"},
      {"measurement": "SHIV RNA copies/ml", "setting": "macaque CH54, day 102", "result": 4845, "unit": "copies/ml"},
      {"measurement": "SHIV RNA copies/ml", "setting": "macaque CH54, day 106", "result": 6130, "unit": "copies/ml"},
      {"measurement": "SHIV RNA copies/ml", "setting": "macaque CH54, day 115", "result": 11911, "unit": "copies/ml"},
      {"measurement": "SHIV RNA copies/ml", "setting": "macaque CH54, day 120", "result": 31403, "unit": "copies/ml"},
      {"measurement": "SHIV RNA copies/ml", "setting": "macaque CH54, day 134", "result": 191398, "unit": "copies/ml"},
      {"measurement": "SHIV RNA copies/ml", "setting": "macaque CH54, day 143", "result": 237292, "unit": "copies/ml"},
      {"measurement": "SHIV RNA copies/ml", "setting": "macaque CH54, day 148", "result": 248416, "unit": "copies/ml"},
      {"measurement": "SHIV RNA copies/ml", "setting": "macaque CH54, day 155", "result": 193010, "unit": "copies/ml"},
      {"measurement": "SHIV RNA copies/ml", "setting": "macaque CH54, day 162", "result": 381752, "unit": "copies/ml"},
      {"measurement": "SHIV RNA copies/ml", "setting": "macaque CH54, day 170", "result": 723681, "unit": "copies/ml"},
      {"measurement": "SHIV RNA copies/ml", "setting": "macaque CH54, day 176", "result": 865804, "unit": "copies/ml"},
      {"measurement": "SHIV RNA copies/ml", "setting": "macaque CH54, day 183", "result": 675825, "unit": "copies/ml"},
      {"measurement": "SHIV RNA copies/ml", "setting": "macaque CH54, day 190", "result": 628830, "unit": "copies/ml"},
      {"measurement": "SHIV RNA copies/ml", "setting": "macaque CH54, day 197", "result": 268555, "unit": "copies/ml"},
      {"measurement": "SHIV RNA copies/ml", "setting": "macaque CH54, day 204", "result": 486811, "unit": "copies/ml"},
      {"measurement": "SHIV RNA copies/ml", "setting": "macaque CJ92, day 0", "result": 49, "unit": "copies/ml"},
      {"measurement": "SHIV RNA copies/ml", "setting": "macaque CJ92, day 2", "result": 2447, "unit": "copies/ml"},
      {"measurement": "SHIV RNA copies/ml", "setting": "macaque CJ92, day 4", "result": 125508, "unit": "copies/ml"},
      {"measurement": "SHIV RNA copies/ml", "setting": "macaque CJ92, day 7", "result": 154624, "unit": "copies/ml"},
      {"measurement": "SHIV RNA copies/ml", "setting": "macaque CJ92, day 9", "result": 3967166, "unit": "copies/ml"},
      {"measurement": "SHIV RNA copies/ml", "setting": "macaque CJ92, day 11", "result": 4311448, "unit": "copies/ml"},
      {"measurement": "SHIV RNA copies/ml", "setting": "macaque CJ92, day 71", "result": 56, "unit": "copies/ml"},
      {"measurement": "SHIV RNA copies/ml", "setting": "macaque CJ92, day 74", "result": 49, "unit": "copies/ml"},
      {"measurement": "SHIV RNA copies/ml", "setting": "macaque CJ92, day 78", "result": 49, "unit": "copies/ml"},
      {"measurement": "SHIV RNA copies/ml", "setting": "macaque CJ92, day 81", "result": 49, "unit": "copies/ml"},
      {"measurement": "SHIV RNA copies/ml", "setting": "macaque CJ92, day 85", "result": 49, "unit": "copies/ml"},
      {"measurement": "SHIV RNA copies/ml", "setting": "macaque CJ92, day 88", "result": 43, "unit": "copies/ml"},
      {"measurement": "SHIV RNA copies/ml", "setting": "macaque CJ92, day 92", "result": 49, "unit": "copies/ml"},
      {"measurement": "SHIV RNA copies/ml", "setting": "macaque CJ92, day 95", "result": 142, "unit": "copies/ml"},
      {"measurement": "SHIV RNA copies/ml", "setting": "macaque CJ92, day 102", "result": 49, "unit": "copies/ml"},
      {"measurement": "SHIV RNA copies/ml", "setting": "macaque CJ92, day 106", "result": 49, "unit": "copies/ml"},
      {"measurement": "SHIV RNA copies/ml", "setting": "macaque CJ92, day 115", "result": 49, "unit": "copies/ml"},
      {"measurement": "SHIV RNA copies/ml", "setting": "macaque CJ92, day 120", "result": 49, "unit": "copies/ml"},
      {"measurement": "SHIV RNA copies/ml", "setting": "macaque CJ92, day 134", "result": 282, "unit": "copies/ml"},
      {"measurement": "SHIV RNA copies/ml", "setting": "macaque CJ92, day 143", "result": 2021, "unit": "copies/ml"},
      {"measurement": "SHIV RNA copies/ml", "setting": "macaque CJ92, day 148", "result": 94, "unit": "copies/ml"},
      {"measurement": "SHIV RNA copies/ml", "setting": "macaque CJ92, day 155", "result": 49, "unit": "copies/ml"},
      {"measurement": "SHIV RNA copies/ml", "setting": "macaque CJ92, day 162", "result": 49, "unit": "copies/ml"},
      {"measurement": "SHIV RNA copies/ml", "setting": "macaque CJ92, day 170", "result": 49, "unit": "copies/ml"},
      {"measurement": "SHIV RNA copies/ml", "setting": "macaque CJ92, day 176", "result": 209, "unit": "copies/ml"},
      {"measurement": "SHIV RNA copies/ml", "setting": "macaque CJ92, day 183", "result": 49, "unit": "copies/ml"},
      {"measurement": "SHIV RNA copies/ml", "setting": "macaque CJ92, day 190", "result": 49, "unit": "copies/ml"},
      {"measurement": "SHIV RNA copies/ml", "setting": "macaque CJ92, day 197", "result": 113, "unit": "copies/ml"},
      {"measurement": "SHIV RNA copies/ml", "setting": "macaque CJ92, day 204", "result": 49, "unit": "copies/ml"}
    ]}
  ]
}
